# The list shows a part of the results. These are raw signals, not scaled to a control.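 Primary screen: polymyxin B was added at a level permeabilizing Salmonella outer membranes while sparing inner membranes. DMSO wells, both with and without polymyxin B, established maximum growth. Plate-to-plate variation meant each plate was ranked on its own, and the lowest-OD600 compounds were selected as hits.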
# Test system: Salmonella enterica serovar Typhimurium SL1344
# Assay: bacterial growth OD600 after 18 h with compound and polymyxin B; higher = more bacterial growth (less inhibition)
# Settings: 50 µM, Mueller-Hinton broth
Compound,bacterial growth OD600 (polymyxin B 1 µg/mL),bacterial growth OD600 (polymyxin B 0.75 µg/mL)
COc1cccc(C(C)N(C)C(=O)c2coc(COc3cccc(F)c3F)n2)c1 (stereo not drawn),0.471,
COC1CCN(C(=O)CC(c2cccc(O)c2)c2cccc(Cl)c2)CC1 (stereo not drawn),0.665,
O=C(c1ccco1)N1CCC2(CCCN(Cc3ccccc3F)C2=O)C1 (stereo not drawn),,0.8
O=C(/C=C/c1ccccc1)NCC1CC(Cc2ccc(F)cc2)=NO1 (stereo not drawn),,0.808
Cc1cc(C)c(C(=O)N2CCCC(CCc3ccccc3C)C2)c(=O)[nH]1 (stereo not drawn),,0.753
O=C(Nc1ccc(Oc2ccccc2)nc1)C1CCN(CCCn2cccn2)CC1,,0.791
Cc1ccc2c(c1)CN(Cc1c[nH]nc1-c1ccc(F)cc1)CC(C)O2 (stereo not drawn),,0.891
O=C(CCc1ccccc1)Nc1ccnn1C1CCN(C(=O)c2cscn2)CC1,0.935,
CN(Cc1cccnc1)c1ccc(-c2nc(-c3ccccc3F)no2)cn1,0.543,
Cc1cnc(C)c(N2CCN(C(=O)CC3C(=O)NCCN3CCC(C)C)CC2)n1 (stereo not drawn),1.14,
COc1cccc(-c2n[nH]c3c2CN(C(=O)c2cccnc2OC)CC3)c1,,0.901
COc1ccc(CN2CCOc3ccc(C(O)CCc4ccccc4)cc3C2)c(OC)c1OC (stereo not drawn),,0.009
O=C1CCC(CCNCCOc2ccc(F)cc2)N1Cc1ccccc1OC(F)(F)F (stereo not drawn),,0.998
CC(C)/C=C/CN1CCC(Oc2ccccc2C(=O)N2CCCC2)CC1,1.03,
Cc1nc(C)c(C(=O)N2CC[C@@H](N3CCN(c4ccccc4F)CC3)[C@H](O)C2)s1,0.906,
O=C1CCCN1CCCC(=O)N1CCCC(CCc2ccc(F)cc2F)C1 (stereo not drawn),,0.792
Cc1ccoc1C(=O)NC1CC(C)(C)Cc2nc(N3CCOCC3)ncc21 (stereo not drawn),,0.8

Compound,bacterial growth OD600 (polymyxin B 1 µg/mL),bacterial growth OD600 (polymyxin B 0.75 µg/mL)
Cc1cnc(CNC(=O)c2coc(COc3ccccc3)n2)cn1,,0.834
CCOC(=O)CNC(=O)N1CCCC(C(=O)c2cccc(Cl)c2)C1 (stereo not drawn),0.842,
COCc1ccc([C@@H]2C[C@H]3CN(CCc4ccccc4)C(=O)[C@]34CCCN24)o1,0.746,
COc1ccc(-c2cnnc(NCC3CCOCC3)n2)cc1F,,0.358
COCCN(C)C(=O)CC1(c2ccc(-c3ccccc3)cc2)CC(=O)N(C2CC2)C1=O (stereo not drawn),,0.793
OC(Cc1ccccc1)c1ccc2c(c1)CN(Cc1cc(F)cc(F)c1)CCO2 (stereo not drawn),,-0.003
O=C(c1coc(COc2cccc(F)c2)n1)N1CCN2CCCC2C1 (stereo not drawn),0.923,
CC(=O)NCCC(=O)N1CCCC(CNC(=O)c2ccc(-c3ccccc3)cc2)C1 (stereo not drawn),0.957,
CCn1cc(CN(CCOC)CC2CCCN(C3Cc4ccccc4C3)C2)cn1 (stereo not drawn),,0.825
CN(C)c1ncc2c(n1)CCCC2NC1CCCCC1 (stereo not drawn),,0.974
COCC(=O)N1CCC(Oc2ccc(C(=O)NCc3cccc(SC)c3)cc2)CC1,0.779,
COCC1CCCCN1C(=O)c1cc(COc2ccc(F)cc2F)[nH]n1 (stereo not drawn),,0.818
Cc1ocnc1C(=O)NCc1cccnc1-n1cnc2ccccc21,1.01,
CN(Cc1cc(-c2ccccc2)[nH]n1)C(=O)Cn1nnnc1CN1CCCCCC1,,0.978
Cc1ccc(CC2(CCC(=O)N(CCO)Cc3ccccc3)CCC(=O)N2)cc1 (stereo not drawn),,0.799
COCCN(Cc1nc(NCCc2ccccc2OC)c2ccccc2n1)C(C)C,,0.858

# 2 neighbouring entries from above:
Compound,bacterial growth OD600 (polymyxin B 1 µg/mL),bacterial growth OD600 (polymyxin B 0.75 µg/mL)
COCC(=O)N1CCC(Oc2ccc(C(=O)NCc3cccc(SC)c3)cc2)CC1,0.779,
COCC1CCCCN1C(=O)c1cc(COc2ccc(F)cc2F)[nH]n1 (stereo not drawn),,0.818
